# The whole screen tested about 340,000 compounds, of which about 170 (0.05%) were called active. Inconclusive means that the source gave no clear call. Such entries were picked first, then a sample of the others. Calls come from the whole dose curve; as a rule, active = well fitted inhibition curve with a large enough effect in the signal ratio, with a control signal flat (not every such curve was filed as active); inconclusive = small, poorly fitted or top-dose-only effect, or effect the other way, or a change in a side signal; inactive = flat fitted curve, though single readings scatter; the % refers to the signal ratio. Potencies of inconclusive entries are doubtful fits and often do not repeat.
# Assay: qHTS Assay to Find Inhibitors of Chronic Active B-Cell Receptor Signaling;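 for activity change, negative = inhibition: plate controls were basal doxycycline-induced cells for no effect and cells given 10 µM MG132 for full effect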
# Settings: ABC-DLBCL IkBa-CBG/CBR reporter, luminescence ratio (green luciferase fused to IkBa over red control in TMD8 lymphoma cells), 4 h; activity change, negative = inhibition: at 46.1 µM (top of the series)
# Procedure, shortened: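 Doxycycline induced both beetle luciferases in TMD8 lymphoma cells; IKK-driven degradation limits the IkappaBalpha-fused green signal, while red luminescence normalises for cell number and nonspecific effects. Compounds tested up to 46 uM, 4 hrs.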
# Potency is the fitted concentration of half-maximal effect.
SMILES,Potency,"activity change, negative = inhibition"
CCNC(=O)NC(=O)COC(=O)CCCSc1nc2ccccc2s1,"inconclusive: 0.116 µM [rising, full curve, poor fit]",–
Brc1ccc(CSc2nnc(-c3ccccn3)n2Cc2ccco2)cc1,"inconclusive: 35.5 µM [falling, partial curve, poor fit]",–
Cc1cc(OCC(=O)N2CCOCC2)cc2oc(=O)c3ccccc3c12,–,inconclusive: 11.9%
CCOC(=O)c1ccccc1NC(=O)COC(=O)c1cc([N+](=O)[O-])ccc1N1CCOCC1,"inconclusive: 25.9 µM [falling, partial curve, poor fit]",–
COc1cc(NC(=O)CN(c2ccc(C)cc2)S(=O)(=O)c2c(C)nn(C)c2C)cc(OC)c1,–,inconclusive: 7.12%
COCCNc1oc(-c2ccccc2Cl)nc1C#N,–,inconclusive: -13.5%
CCc1[nH]nc2c1C(C(C)C)C(C#N)=C(N)O2 (stereo not drawn),"inconclusive: 22.4 µM [falling, single point]",–
CCC(C)(C)n1nnnc1CN1CCSCC1,–,inconclusive: 5.77%
CCOc1ccc(S(=O)(=O)N2CCN(C(=O)C3CCC3)CC2)cc1,–,inactive: -5.38%
COc1ccc(-c2nc3ccccc3n2CCC(C)C)cc1OC,–,inconclusive: 11.7%
COc1ccccc1-c1ccc(C(=O)O)o1,"inconclusive: 18.4 µM [falling, partial curve]",–
O=C(NCc1ccccc1)c1cccc(COc2cccc(Cl)c2)c1,"inconclusive: 25.1 µM [rising, partial curve, poor fit]",–
N#Cc1nc(Cc2cccc3ccccc23)oc1N1CCOCC1,"inconclusive: 15.8 µM [falling, partial curve, poor fit]",–
C=CCNC(=O)c1ccc(CSc2nc3ccccc3s2)cc1,–,inconclusive: 0.451%
COC(=O)c1sccc1NC(=O)/C=C/c1ccc(Cl)cc1,"inconclusive: 0.326 µM [falling, full curve, poor fit]",–
CCCCOC(=O)CSC1=C(C#N)C(c2ccc3c(c2)OCO3)CC(=O)N1 (stereo not drawn),"inconclusive: 5.8 µM [falling, partial curve, poor fit]",–
c1ccc(N(c2ccccc2)c2nc(-n3ccnc3)nc(-n3ccnc3)n2)cc1,–,inactive: -6.58%
COC(=O)CN(n1cnnc1)S(=O)(=O)c1ccccc1,–,inconclusive: 2.06%
C#CCN1C(=O)C(O)(CC(=O)/C=C/c2ccco2)c2ccccc21 (stereo not drawn),–,inconclusive: -16.4%
O=C(Nc1cccc2ncccc12)c1ccc2c(c1)OCCO2,"inconclusive: 18.4 µM [falling, partial curve]",–
CCn1c2c(c3cc(OCC(C)C)ccc31)CCCC2=O,"inconclusive: 16.4 µM [rising, partial curve, poor fit]",–
CCN1C(=O)[C@H]2[C@@H](c3ccc(-c4ccc(OC)cc4)cc3)N3CCCC[C@@]3(C(=O)OC)[C@H]2C1=O,–,inactive: 6.02%
CCOC(=O)N1CCN(S(=O)(=O)c2cccc3cccnc23)CC1,–,inconclusive: 0.727%
COc1cccc(CNc2ccc3[nH]c(=O)[nH]c3c2)c1OCc1ccccc1Cl,"inconclusive: 15.8 µM [falling, partial curve, poor fit]",–
COc1ccc(/C=N/Nc2ncccc2[N+](=O)[O-])c(OC)c1,"inconclusive: 35.5 µM [falling, single point]",–
CC(=O)Nc1nnc(-c2ccc(Cl)s2)o1,–,inconclusive: -0.0146%

# A draw from above in order of heavy-atom count, descending.
SMILES,Potency,"activity change, negative = inhibition"
CCN1C(=O)[C@H]2[C@@H](c3ccc(-c4ccc(OC)cc4)cc3)N3CCCC[C@@]3(C(=O)OC)[C@H]2C1=O,–,inactive: 6.02%
CCCCOC(=O)CSC1=C(C#N)C(c2ccc3c(c2)OCO3)CC(=O)N1 (stereo not drawn),"inconclusive: 5.8 µM [falling, partial curve, poor fit]",–
COC(=O)c1sccc1NC(=O)/C=C/c1ccc(Cl)cc1,"inconclusive: 0.326 µM [falling, full curve, poor fit]",–

# Further compounds:

SMILES,Potency,"activity change, negative = inhibition"
CCn1nc(C)c(/C=N/NC(=O)Cn2nccc2C)c1C,–,inactive: 1.35%
CCOc1ccc(CNC(=O)c2ccc3c(c2)N(CC)CCS3)cc1,–,inactive: -6.48%
Cc1cc(C)n2nc(SCc3cc(=O)oc4cc(C)c(C)cc34)nc2n1,–,inactive: 1.34%
COc1ccc(CNc2nc3ccccc3n2Cc2ccc(C)cc2)cc1OC,–,inconclusive: -13.6%
CSc1ccccc1NC(=O)COC(=O)CSc1ccc(C)cc1,"inconclusive: 16.4 µM [falling, single point]",–
CCCOc1ccc(C(=O)NC(=S)N2CCN(c3cc4c(cc3F)c(=O)c(C(=O)O)cn4CC)CC2)cc1,–,inconclusive: 15.8%
CCC(=O)NCC(=O)OCC(=O)c1ccccc1,"inconclusive: 23.1 µM [rising, partial curve, poor fit]",–
COc1cc(/C=N\Nc2ccc([N+](=O)[O-])cc2)ccc1OCC(=O)Nc1ccc(C)c(C)c1,–,inactive: 7.04%
COc1ccccc1C(=O)NC(CCSC)C(=O)OC(C)C(N)=O (stereo not drawn),–,inconclusive: 0.165%
CC1CCN(C(=O)CN(C2CCCCC2)S(C)(=O)=O)CC1,–,inconclusive: -1.22%
CCC(=O)NC1=C(C#N)C2(CCCC2)Cc2ccccc21,–,inactive: 0.239%
COc1ccc(/C(C)=N/N2C(=O)c3ccccc3NC2c2ccc(O)c(OC)c2)cc1 (stereo not drawn),"inconclusive: 12.6 µM [falling, single point]",–
CC(C)(C)C(=O)Nc1ccc(S(=O)(=O)N2CCC(c3nc4ccccc4[nH]3)CC2)cc1,–,inconclusive: -0.668%
Cc1ccc2nc(CSc3nc(C)cc(C)c3C#N)[nH]c2c1,"inconclusive: 0.708 µM [rising, partial curve, poor fit]",–
Cc1ccc(-c2nnc(SCC(=O)c3ccc(Cl)cc3)n2-c2ccccc2)cc1,–,inconclusive: 19.1%
COc1ccc(-c2noc(CCCC(=O)Nc3ccc(C(N)=O)cc3)n2)cc1,"inconclusive: 1.26 µM [rising, full curve, poor fit]",–
O=c1[nH]c2ccccc2n1Cc1ccc(Cl)cc1,–,inconclusive: -5.37%
CC(C)(C)SCCNC(=O)/C=C/c1cccc([N+](=O)[O-])c1,–,inconclusive: 5.48%
COc1ccc(Cn2cccc(NC(=O)Nc3ccc(C#N)cc3)c2=O)cc1,–,inconclusive: 1.4%
Cc1ccccc1-n1c(SCC(=O)N/N=C/c2ccccc2OCC(=O)O)nc2ccccc2c1=O,–,inconclusive: -6.86%
O=C(/C=C1\SC(=O)NC1=O)Nc1ccc(F)cc1,–,inconclusive: 3.13%
CCN(CC)S(=O)(=O)c1ccc(C(=O)N2CCN(C(=O)c3ccco3)CC2)cc1,–,inconclusive: 1.39%
CC(C)(C)NC(=O)C1CCC(C)(C(=O)O)C1(C)C (stereo not drawn),–,inactive: -3.34%
CCNC(=S)NS(=O)(=O)c1ccc(Cl)cc1,–,inconclusive: 7.43%
O=C1NC(=O)C(Cc2c[nH]c3ccccc23)N1 (stereo not drawn),–,inconclusive: 6.85%
CCOc1ccccc1NC(=O)Cn1nnc(C(=O)NCc2ccco2)c1N,"inconclusive: 0.447 µM [falling, full curve, poor fit]",–

SMILES,Potency,"activity change, negative = inhibition"
COC(=O)c1ccccc1NC(=S)NC(=O)c1ccc(C)cc1,"inconclusive: 18.4 µM [falling, partial curve, poor fit]",–
CC(=O)N1CCN(C(=O)c2cc3ccccc3o2)CC1,–,inconclusive: -0.773%
CC(C)(C)c1ccc(C(=O)NCCc2ccccc2)cc1,–,inconclusive: 8.71%
CC(NC(=O)c1ccc2c(c1)OCO2)C(c1cccs1)N1CCN(c2ccccc2)CC1 (stereo not drawn),–,inactive: -4.06%
COC(=O)c1c(N2C(=O)Nc3ccccc3N2O)sc2c1CCCC2,–,inconclusive: -0.769%
Cc1cc(C)cc(NC(=O)CSCc2cnn(-c3ccccc3)c2-n2cccc2)c1,"inconclusive: 29.1 µM [falling, single point]",–
O=C(NC(=S)Nc1cccc(NC(=O)c2ccc(Cl)cc2Cl)c1)c1cccs1,–,inactive: -1.08%
COc1ccc(C2CC(c3ccccc3)=NN2C(=O)COC(=O)c2cccc(O)c2)cc1 (stereo not drawn),–,inconclusive: -3.21%
COc1ccccc1CCCNC(=O)C1CCC(=O)N(CCc2ccc(Cl)cc2)C1 (stereo not drawn),–,inconclusive: -5.33%
CCc1ccc(OCC(=O)N(Cc2ccccc2)C2CCS(=O)(=O)C2)cc1 (stereo not drawn),–,inconclusive: 3.33%
Cc1ccc(/C=C2\SC(N3CCN(C(c4ccccc4)c4ccccc4)CC3)=NC2=O)o1,–,inconclusive: -1.18%
COc1ccc(CCNS(=O)(=O)c2cn(C)c(=O)n(C)c2=O)cc1OC,–,inconclusive: 16.1%
O=[N+]([O-])c1ccc2c(c1)ncn2-c1ccccc1,–,inactive: 8.25%
CN1CCc2c(sc(NC(=O)c3cc4cc([N+](=O)[O-])ccc4s3)c2C(N)=O)C1,"inconclusive: 3.55 µM [rising, partial curve, poor fit]",–
Brc1ccc(OCc2cn3ccccc3n2)cc1,"inconclusive: 31.6 µM [rising, single point]",–
O=C(/C=C/c1cccc(F)c1)NNC(=O)c1ccncc1,"inconclusive: 20.6 µM [falling, single point]",–
O=C(NCc1cccnc1)c1nc(-c2ccccc2)n(-c2ccccc2)n1,–,inconclusive: 7.23%
CC(C)N(C(=O)[C@H]1C[C@H](CC(=O)NCCCn2ccnc2)C(=O)N2CCc3c([nH]c4cc(-c5ccco5)ccc34)[C@]12C)C(C)C,–,inconclusive: -1.56%
CCOC(=O)c1nn(-c2ccccc2C)c(=O)c2c(N)scc12,–,inactive: 0.904%
O=C(O)Cc1sc(-c2ccccc2Cl)nc1-c1ccccc1,–,inconclusive: -1.17%
COc1ccc2[nH]c(=O)c(CN(CCc3cccc(C)c3)C(C)=O)cc2c1,"inconclusive: 29.1 µM [falling, single point]",–
CCOC(=O)c1cnc(NCc2ccccc2)nc1C,"inconclusive: 25.9 µM [falling, partial curve]",–
COc1ccc(CCNc2nc(Cl)nc(NC(C)(C)CO)n2)cc1OC,–,inconclusive: -0.466%
O=c1cc2c(=O)oc3cc(O)c(O)oc3c2c(O)c1O,–,inactive: -0.576%
CC1CN(S(=O)(=O)c2ccccc2)CC(C)O1 (stereo not drawn),–,inconclusive: -5.95%
Cc1ccc(CNC(=O)[C@H](C)NC(=O)C2CCN(C(=O)[C@@H]3CCCN3C(=O)OC(C)(C)C)CC2)cc1,–,inactive: 17.6%

# — PubChem BioAssay AID493014 (National Center for Advancing Translational Sciences (NCATS), 2011)
